Assay results: PubChem BioAssay AID2685 (National Center for Advancing Translational Sciences (NCATS), 2010)
The other results are listed elsewhere or left out. Further columns of the screen follow, without active or inactive calls. Compounds called inactive in the main read-out are mostly missing here. Words in brackets tell the shape of the fitted curve; partial curves, single points and poor fits give uncertain potencies.

Experiment: qHTS Assay for Lipid Storage Modulators in Drosophila S3 Cells;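 as to cell number change: cells counted by Cell Tracker Red CMTPX staining in the red channel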
Conditions: BODIPY lipid droplet fluorescence, 18-24 h; for cell number change: measured here: cell count max response, cells fed with added oleic acid
Method in brief: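 Drosophila S3 cells loaded with oleic acid (400 uM, as added) and compounds at several concentrations; lipid droplets imaged by 488-nm laser-scanning cytometry, 500–530 nm intensity and object ratio to cell channel. Percent activity normalized to 20 uM Triacsin C.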

[1] = measured here: cell number channel AC50, cells fed with added oleic acid
[2] = measured here: lipid fluorescence (Fed channel) AC50, cells fed with added oleic acid

Row | SMILES | cell number change | AC50 [1] | AC50 [2]
1 | CCS(=O)(=O)N1CCC(c2nc(-c3ccc(C(F)(F)F)cc3)no2)CC1 | -57.4% | 11.6 µM [falling, partial curve, poor fit] | 5.8 µM [falling, partial curve]
2 | FC(F)(F)c1cccc(-c2nc(COc3ccc(Cl)cc3Cl)no2)c1 | 28.1% | – | 29.1 µM [rising, single point]
3 | CN(C)C(=O)CN1CCN(c2nc3nonc3nc2N2CCCCC2)CC1 | 1.19% | – | 0.461 µM [rising, full curve, poor fit]
4 | Cn1c(Cc2cccs2)nnc1SCC(=O)Nc1ccc(C(N)=O)cc1 | -43.6% | 20.6 µM [falling, single point] | 20.6 µM [rising, partial curve, poor fit]
5 | O=C(Cn1nc(-c2cccc([N+](=O)[O-])c2)c2ccccc2c1=O)NCC1CCCO1 (centres undefined) | 38.2% | 29.1 µM [rising, single point] | –
6 | COc1ccc(C(CNC(=O)Cc2ccccc2Cl)N2CCCCC2)cc1 (centres undefined) | 16.7% | – | 29.1 µM [rising, single point]
7 | Cc1ccc(NC(=O)CN(C)C(=O)c2ccccc2Cc2ccccc2)cc1 | -30.3% | 2.91 µM [falling, full curve] | 6.51 µM [falling, single point]
8 | O=C(CCN1CCOCC1)NNC(=S)NC(=O)c1ccc(Br)cc1 | 4.48% | 4.11 µM [rising, single point] | –
9 | O=C(COc1ccc(N2CC(C(=O)O)CC2=O)cc1)Nc1cccc(C(F)(F)F)c1 (centres undefined) | 0.132% | – | 4.11 µM [falling, full curve, poor fit]
10 | CCC1(C(=O)OC)NC(c2ccco2)C2C(=O)N(c3ccc(F)cc3)C(=O)C21 (centres undefined) | 11.9% | – | 3.66 µM [rising, partial curve]
11 | CCCNc1nc2c(c(=O)n(C)c(=O)n2C)n1Cc1ccc(F)cc1 | 34.5% | 4.11 µM [rising, full curve, poor fit] | –
12 | O=C(CCc1nc(-c2ccccc2)no1)NCCc1ccccc1 | 24.3% | – | 14.6 µM [rising, partial curve]
13 | Cc1cc2cc(CNC(=O)Cc3ccc([N+](=O)[O-])cc3)ccc2n1C | 31.4% | 14.6 µM [rising, single point] | 0.58 µM [rising, single point]
14 | O=C(Cn1cnc2sc3c(c2c1=O)CCCC3)NCC(=O)Nc1ccccc1F | 32.1% | – | –
15 | O=C(Nc1ccc(N2CCN(C(=O)c3ccco3)CC2)cc1)c1ccccc1Br | 8.5% | – | 6.51 µM [rising, single point]
16 | CN(CC(=O)Nc1nc2ccccc2s1)S(=O)(=O)c1ccc(Br)cc1 | -14.1% | 3.26 µM [rising, single point] | 6.51 µM [rising, single point]
17 | CC(=O)Nc1ccc(S(=O)(=O)NC(CC(=O)NCCc2ccccc2)C(C)C)cc1 (centres undefined) | – | – | 0.164 µM [falling, full curve, poor fit]
18 | Cc1ccc(CN(CC(=O)NC(C)(C)C)C(=O)CNC(=O)c2cccs2)cc1 | -14% | – | 11.6 µM [falling, partial curve]
19 | CCC(CC)NC(=O)/C=C/c1ccccc1Cl | 52.3% | 16.4 µM [rising, single point] | 20.6 µM [rising, partial curve]
20 | CCCN1C(=O)CSC1=Nc1ccccc1 | 10.6% | – | –

Row | SMILES | cell number change | AC50 [1] | AC50 [2]
21 | COc1ccc(OC)c(Nc2nc(N)nc(CSc3nnc(-c4ccncc4)o3)n2)c1 | 2.29% | 2.91 µM [rising, single point] | 3.26 µM [rising, partial curve]
22 | CCc1ccc(NC(=O)c2cnn3c(C(F)F)cc(C)nc23)cc1 | 2.83% | – | 0.13 µM [rising, single point]
23 | O=C1NC(CCc2ccccc2)C(=O)N1CCOc1ccccc1 (centres undefined) | – | – | 0.116 µM [rising, single point]
24 | O=C(Nc1cccc(F)c1)c1cc(S(=O)(=O)N2CCOCC2)ccc1N1CCCC1 | 42.1% | 0.103 µM [rising, full curve, poor fit] | 0.58 µM [falling, single point]
25 | CNC(=O)c1ccsc1NC(=O)c1ccc2c(c1)CCCC2 | 7.56% | – | 0.731 µM [rising, full curve]
26 | CCCCN(CCCNC(=O)c1ccc2nc(N3CCOCC3)sc2c1)Cc1ccccc1 | – | 0.13 µM [falling, full curve, poor fit] | –
27 | CCn1c(C)[n+](CCCS(=O)(=O)[O-])c2cc(Cl)c(Cl)cc21 | 2.38% | – | –
28 | O=S(=O)(Nc1ccccc1N1CCCCC1)c1ccc(F)cc1 | -23.8% | – | 16.4 µM [falling, single point]
29 | Cn1c(SCC(=O)Nc2ccccc2Br)nnc1-c1cnccn1 | -9.13% | – | –
30 | CCCCc1ccc(NC(=S)N2CCCC(C)C2)cc1 (centres undefined) | -40.7% | – | –
31 | COc1ccc(N(C(C)C(=O)NC2CCCCCC2)S(C)(=O)=O)cc1 (centres undefined) | – | – | 23.1 µM [falling, partial curve]
32 | CCOc1ccc(NC(=O)COC(=O)c2cccnc2)cc1 | 6.59% | – | 29.1 µM [falling, single point]
33 | O=C1CC(c2ccc(S(=O)(=O)Nc3cc(C(F)(F)F)cc(C(F)(F)F)c3)cc2)CN1 (centres undefined) | 32.6% | 18.4 µM [rising, partial curve, poor fit] | –
34 | COc1cc(/C=C(\C#N)C(=O)Nc2cccc(C(=O)O)c2)ccc1OCc1ccc(Cl)cc1 | -4.76% | 0.326 µM [rising, partial curve, poor fit] | –
35 | N#CC1=C(N)OC2=C(C(=O)CCC2)C12CCN(C(=O)OCc1ccccc1)CC2 | -10.6% | – | 1.64 µM [rising, partial curve]
36 | Cc1ccc2c(c1)nnn2C1CCN(CC(=O)Nc2ccccc2N2CCOCC2)CC1 | -21.9% | – | 16.4 µM [falling, single point]
37 | CC(C(=O)Nc1ccc(OCc2ccccc2)cc1)N1CCCC1 (centres undefined) | 1.13% | 0.00461 µM [falling, full curve, poor fit] | 0.00461 µM [falling, full curve, poor fit]
38 | O=C(OCC(=O)N1CCCCC1)c1c[nH]c2ccccc12 | -3.16% | – | –
39 | CCOCCCn1c(=S)[nH]c2cc(C(=O)N3CCC(C(N)=O)CC3)ccc2c1=O | -43.3% | 4.11 µM [falling, full curve, poor fit] | 2.91 µM [falling, partial curve, poor fit]
40 | N#Cc1cnc(SCC(=O)NNC(=O)COc2cccc3ccccc23)nc1N | 23.6% | – | 0.259 µM [falling, partial curve, poor fit]

Records 6 through 20, reprinted for reference:
Row | SMILES | cell number change | AC50 [1] | AC50 [2]
6 | COc1ccc(C(CNC(=O)Cc2ccccc2Cl)N2CCCCC2)cc1 (centres undefined) | 16.7% | – | 29.1 µM [rising, single point]
7 | Cc1ccc(NC(=O)CN(C)C(=O)c2ccccc2Cc2ccccc2)cc1 | -30.3% | 2.91 µM [falling, full curve] | 6.51 µM [falling, single point]
8 | O=C(CCN1CCOCC1)NNC(=S)NC(=O)c1ccc(Br)cc1 | 4.48% | 4.11 µM [rising, single point] | –
9 | O=C(COc1ccc(N2CC(C(=O)O)CC2=O)cc1)Nc1cccc(C(F)(F)F)c1 (centres undefined) | 0.132% | – | 4.11 µM [falling, full curve, poor fit]
10 | CCC1(C(=O)OC)NC(c2ccco2)C2C(=O)N(c3ccc(F)cc3)C(=O)C21 (centres undefined) | 11.9% | – | 3.66 µM [rising, partial curve]
11 | CCCNc1nc2c(c(=O)n(C)c(=O)n2C)n1Cc1ccc(F)cc1 | 34.5% | 4.11 µM [rising, full curve, poor fit] | –
12 | O=C(CCc1nc(-c2ccccc2)no1)NCCc1ccccc1 | 24.3% | – | 14.6 µM [rising, partial curve]
13 | Cc1cc2cc(CNC(=O)Cc3ccc([N+](=O)[O-])cc3)ccc2n1C | 31.4% | 14.6 µM [rising, single point] | 0.58 µM [rising, single point]
14 | O=C(Cn1cnc2sc3c(c2c1=O)CCCC3)NCC(=O)Nc1ccccc1F | 32.1% | – | –
15 | O=C(Nc1ccc(N2CCN(C(=O)c3ccco3)CC2)cc1)c1ccccc1Br | 8.5% | – | 6.51 µM [rising, single point]
16 | CN(CC(=O)Nc1nc2ccccc2s1)S(=O)(=O)c1ccc(Br)cc1 | -14.1% | 3.26 µM [rising, single point] | 6.51 µM [rising, single point]
17 | CC(=O)Nc1ccc(S(=O)(=O)NC(CC(=O)NCCc2ccccc2)C(C)C)cc1 (centres undefined) | – | – | 0.164 µM [falling, full curve, poor fit]
18 | Cc1ccc(CN(CC(=O)NC(C)(C)C)C(=O)CNC(=O)c2cccs2)cc1 | -14% | – | 11.6 µM [falling, partial curve]
19 | CCC(CC)NC(=O)/C=C/c1ccccc1Cl | 52.3% | 16.4 µM [rising, single point] | 20.6 µM [rising, partial curve]
20 | CCCN1C(=O)CSC1=Nc1ccccc1 | 10.6% | – | –

Next part.

Row | SMILES | cell number change | AC50 [1] | AC50 [2]
41 | CCc1ccc(NC(=O)CSc2nnc(CNC(=O)c3ccco3)o2)cc1 | 11.2% | – | –
42 | O=C(Nc1nnc(C2CC2)s1)C1COc2ccccc2O1 (centres undefined) | 23% | – | 0.00461 µM [rising, full curve, poor fit]
43 | Cc1cccc(-n2nnnc2SCC(=O)c2cc(C)n(Cc3ccco3)c2C)c1 | -32% | – | –
44 | CCn1c(-c2ccc(F)cc2)n[nH]c1=S | 27.6% | – | 29.1 µM [rising, single point]
45 | O=C(CN1C(=O)NC2(CCCC2)C1=O)Nc1ccc(Cl)cc1F | 3.95% | – | 5.62 µM [rising, single point]
46 | CCOC(=O)c1sc(NC(=O)CSc2nnnn2-c2ccccc2)nc1C | 2.91% | – | 1.16 µM [rising, full curve, poor fit]
47 | Nc1nnc(SCc2cn3cc(Cl)ccc3n2)s1 | – | 6.51 µM [rising, partial curve, poor fit] | –
48 | CCN(CC)C(=S)SCC(=O)Nc1ncc2c(n1)CCCC2=O | 18.2% | – | 1.3 µM [rising, full curve, poor fit]
49 | O=C(c1cnn2c(C(F)(F)F)cc(-c3ccccc3)nc12)N1CCCc2ccccc21 | – | – | 2.06 µM [rising, partial curve]
50 | O=C(CSCc1cccc(F)c1)N1CCN(c2ccccc2)CC1 | – | 1.84 µM [rising, partial curve, poor fit] | –
51 | COc1ccc(C(=O)CN2C(=O)c3ccccc3C2=O)c(OC)c1 | -14.4% | – | 5.17 µM [falling, partial curve, poor fit]
52 | COC(=O)c1sc(NC(=O)c2oc3ccccc3c2C)nc1C | 5.61% | – | 0.116 µM [rising, full curve]
53 | COC(=O)C(CCSC)NC(=O)CNS(=O)(=O)c1ccc(Br)cc1 (centres undefined) | 17.5% | – | 29.1 µM [rising, single point]
54 | Clc1ccc(Sc2oc(/C=N/n3cnnc3)cc2Br)cc1 | 3% | – | –
55 | O=C(c1c[nH]c2ccc(S(=O)(=O)N3CCC4(CC3)OCCO4)cc2c1=O)N1CCOCC1 | 0.323% | – | 25.9 µM [falling, partial curve]
56 | COc1ccc(NC(=O)[C@H](C)NC(=O)[C@@H]2Cc3ccccc3CN2C(=O)OC(C)(C)C)cc1 | 21.8% | – | –
57 | O=C(Nc1ccccc1CC[N+](=O)[O-])N1CCN(c2ccccc2)CC1 | 49% | 23.1 µM [rising, single point] | –
58 | N/C(=N\OC(=O)COc1ccc(Cl)cc1Br)c1cccnc1 | 15.1% | 6.51 µM [rising, single point] | –
59 | O=c1[nH]c(NC2CCCCC2)c([N+](=O)[O-])c(=O)[nH]1 | -38.5% | 11.6 µM [falling, partial curve, poor fit] | 14.6 µM [falling, partial curve, poor fit]
60 | CCn1nc(C)c(/C=N/NC(=O)Cn2nnc(N)n2)c1C | -15.6% | – | 0.82 µM [falling, full curve, poor fit]
